{"source": "paper PMC3893498", "key": {"[1]": {"molecular_target": "recombinant wt-TaqII protein (TaqII REase-MTase expressed from the wt-taqIIRM gene) (Thermus aquaticus) (UniProt Q8GJ86)", "test": "SEC; analytical molecular sieving in a buffer close to physiological conditions containing 3 mM MgCl2, in the absence of DNA; both purified"}, "[2]": {"molecular_target": "recombinant syn-TaqII protein (TaqII REase-MTase expressed from the synthetic codon-optimized syn-taqIIRM gene) (Thermus aquaticus) (UniProt Q8GJ86)", "test": "SEC; analytical molecular sieving in a buffer close to physiological conditions containing 3 mM MgCl2, in the absence of DNA; both purified"}}, "note": "No constants are given. Whether binding was seen depends on the method and setting.", "data": [{"binder": "recombinant wt-TaqII protein (TaqII REase-MTase expressed from the wt-taqIIRM gene) (enzyme, UniProt Q8GJ86 1-1105) MTGDTWVLSIRKYLSELRRVQALAQGEAEPEAQLIPLVKGLLEETLGVRVVIEARPKGDTKVGKPDLGVKHQGLLVGFVELKAPGKGADPERYRGHDREQWERFRQLPNLVYTDGRDFALFREGQKVREVRLASEGDAEALRELFLDFLNWRPLVPRNPQELARFLAPLARFLREAVLEEVRENPNGELARLREEWRKNLLPEGDERVFADAYAQLITYGFLLAAALDSGEEPLYLERALELLEGRYGLLMEALFVANHPRLLAEIRPAYDLLRRALRAVDPSVFRVQGVDPWLYFYEDFLQAYDPDLRKDMGVYYTPVPVVRAMVRLVDEALKEGFGLAEGLAHEKVTVLDPAMGTGTFLLATLERALANMASLYGRGYRGQYAKEVASRLHGIELMVGPYAVAQLRLSQAIQGEGGSLPEEGLNLYLADTLEAPEAPPLEQVFFYERLAEERKRAAELKRDKPILVVLGNPPYDRVEGESQEERERKGGWVLRGPREPYPLMEDFLRPAREADLGIHLKNLYNLYVYFWRFALWKVFEQDPERGGVLCFITPSSYLQGPAFAGMREHVRRVADRVYILDLGGEGRGAVREENVFNIQTPVAIALVVRRGPQDSQTPARVFYHRLAPTTREEKLKELEELPPLKDIPFREAPRDWQAPFVPEVGGEWTRWPKLTDLFPWQHSGVEFKRTWPIGPTEEVLKKRWEILLKAPPGERRALFRETGDRLLVKSHRAIFSSKPLPPIATLGPGNPPEAIVRYGYRSFDRAWAIADGRVCSRPRPSLWQTWSERQVYLTSLLTTPLGRGPALVATAYLPDLHHFSSRGGKDIIPLFRDREGREPNLTRGLLKLLEEAYGFPVSPEDFAAYVYALLAHPAYTERFAEELRVPGPRVPLTKDPSLFREGAELGAYLLWLHTYGERYAEGRSWPPKGRARWAKPPSAYPEGHSYDPETRILHVGDGEVEDVAPEVYGFEVSGFLPVESWLGFRQRNRRGRRSSPLDDVVPSEWPADLGRELLELLWVLEKTLEIYPEQKELLQKVLEGPLFTVDELPTPTPEQREPPGGEEEKPQEAEAVGEEEGENGAEHVVQPRLLSLREASRDGVYGNQP", "values": [{"measurement": "binding", "setting": "[1]", "value": "no binding"}]}, {"binder": "recombinant syn-TaqII protein (TaqII REase-MTase expressed from the synthetic codon-optimized syn-taqIIRM gene) (enzyme, UniProt Q8GJ86 1-1105) MTGDTWVLSIRKYLSELRRVQALAQGEAEPEAQLIPLVKGLLEETLGVRVVIEARPKGDTKVGKPDLGVKHQGLLVGFVELKAPGKGADPERYRGHDREQWERFRQLPNLVYTDGRDFALFREGQKVREVRLASEGDAEALRELFLDFLNWRPLVPRNPQELARFLAPLARFLREAVLEEVRENPNGELARLREEWRKNLLPEGDERVFADAYAQLITYGFLLAAALDSGEEPLYLERALELLEGRYGLLMEALFVANHPRLLAEIRPAYDLLRRALRAVDPSVFRVQGVDPWLYFYEDFLQAYDPDLRKDMGVYYTPVPVVRAMVRLVDEALKEGFGLAEGLAHEKVTVLDPAMGTGTFLLATLERALANMASLYGRGYRGQYAKEVASRLHGIELMVGPYAVAQLRLSQAIQGEGGSLPEEGLNLYLADTLEAPEAPPLEQVFFYERLAEERKRAAELKRDKPILVVLGNPPYDRVEGESQEERERKGGWVLRGPREPYPLMEDFLRPAREADLGIHLKNLYNLYVYFWRFALWKVFEQDPERGGVLCFITPSSYLQGPAFAGMREHVRRVADRVYILDLGGEGRGAVREENVFNIQTPVAIALVVRRGPQDSQTPARVFYHRLAPTTREEKLKELEELPPLKDIPFREAPRDWQAPFVPEVGGEWTRWPKLTDLFPWQHSGVEFKRTWPIGPTEEVLKKRWEILLKAPPGERRALFRETGDRLLVKSHRAIFSSKPLPPIATLGPGNPPEAIVRYGYRSFDRAWAIADGRVCSRPRPSLWQTWSERQVYLTSLLTTPLGRGPALVATAYLPDLHHFSSRGGKDIIPLFRDREGREPNLTRGLLKLLEEAYGFPVSPEDFAAYVYALLAHPAYTERFAEELRVPGPRVPLTKDPSLFREGAELGAYLLWLHTYGERYAEGRSWPPKGRARWAKPPSAYPEGHSYDPETRILHVGDGEVEDVAPEVYGFEVSGFLPVESWLGFRQRNRRGRRSSPLDDVVPSEWPADLGRELLELLWVLEKTLEIYPEQKELLQKVLEGPLFTVDELPTPTPEQREPPGGEEEKPQEAEAVGEEEGENGAEHVVQPRLLSLREASRDGVYGNQP", "values": [{"measurement": "binding", "setting": "[2]", "value": "no binding"}]}]}
